The numbers were not newly measured in patent US7687487B2, “Camptothecin-analog with a novel, “flipped” lactone-stable, E-ring and methods for making and using same” (BioNumerik Pharmaceuticals, Inc., priority 2007, dated 2010), which cites them from elsewhere.

The conditions of the data set: dissolving in 1 mL of water.

With `CC[C@@]1(O)C(=O)OCc2c1cc1n(c2=O)Cc2cc3ccccc3nc2-1` [CPT, (S)-4-Ethyl-4-hydroxy-1 H-pyrano[3′,4′:6,7]indolizino[1,2-b]quinoline-3,14(4H,12H)-dione], the “solubility in water of closed E-ring lactone form” value is given as “approximately 0.1 μg”.
